Experimental findings from patent US20070264200A1, “Mouse MRI for drug screening” (priority 2005, published 2007) are described below.

A short description of this data set: Steady-state T2-weighted MRI ΔR2 (relative CBV) maps and CNR of mouse brain after contrast agent. Format: in vivo, C57BL/6 mice.
Where [1] appears, read: IP, doses 50 times or higher than the human IV dose.

`CNC(=O)CN(CCN(CCN(CC(=O)[O-])CC(=O)NC)CC(=O)[O-])CC(=O)[O-].[Gd+3]` [gadodiamide]: the “acquisition time at which AR2 peaked” value (IP 5 and 10 mmol/kg) came to 37.5 min. Under setting [1], the “time after which magnetic susceptibility perturbation was observed in T2 and T2* weighted images” value was 7.5 min; the “time after which plateau phase was reached” value is 37.5 min. Moreover, the optimum dose (IP, highest dose without toxicity) is 10 mmol/kg. Besides, the “CNR in the next imaging session” value (IP, no flush at the end of the imaging session) is 1.62+/−0.59. Moreover, for the setting “IV (feridex 18 mg Fe/kg, GD 0.2 mmol/kg)”, the “acquisition time at which AR2 peaked” value is “peaked at first acquisition time”.
